This passage reports EC50 results from patent US10941152B2, “Pyrazole compounds as modulators of FSHR and uses thereof” (TOCOPHERX, INC., priority 2014, dated 2021).

Protein sequences, listed by entry. Tags and fused reporters are not part of them. Residues count along the entry.
UniProt P23945, 18-695 limits assumed: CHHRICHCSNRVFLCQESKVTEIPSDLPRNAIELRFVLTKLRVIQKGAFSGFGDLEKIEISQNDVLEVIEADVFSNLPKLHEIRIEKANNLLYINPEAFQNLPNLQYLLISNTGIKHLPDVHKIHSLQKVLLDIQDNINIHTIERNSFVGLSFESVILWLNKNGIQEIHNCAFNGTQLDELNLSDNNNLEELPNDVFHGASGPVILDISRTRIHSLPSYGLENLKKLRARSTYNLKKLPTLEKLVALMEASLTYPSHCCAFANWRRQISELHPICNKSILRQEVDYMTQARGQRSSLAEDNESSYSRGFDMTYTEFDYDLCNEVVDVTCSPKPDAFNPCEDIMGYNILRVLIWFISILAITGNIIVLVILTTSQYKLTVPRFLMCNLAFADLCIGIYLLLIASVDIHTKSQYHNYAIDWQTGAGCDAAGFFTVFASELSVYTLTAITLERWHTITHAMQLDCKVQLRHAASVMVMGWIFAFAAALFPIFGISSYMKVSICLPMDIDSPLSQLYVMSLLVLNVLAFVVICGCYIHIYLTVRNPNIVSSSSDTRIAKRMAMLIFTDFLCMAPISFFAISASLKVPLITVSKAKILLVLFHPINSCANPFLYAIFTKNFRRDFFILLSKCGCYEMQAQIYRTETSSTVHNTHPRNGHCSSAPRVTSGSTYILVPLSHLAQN

This experiment addresses FSHR (Homo sapiens, UniProt P23945). The experiment is described as follows: EC50 of cyclic AMP production in CHO FSHR cells + EC20 FSH (Assay A). The conditions noted are these: read-out: Assay A; cyclic AMP production in CHO FSHR cells + EC20 FSH (0.265 pM), HTRF. As for the experimental part: Example 24. EC50 of cyclic AMP production in CHO FSHR cells+EC20 FSH (Assay A)
2500 Cho-FSHR-LUC-1-1-43 cells were plated per well in 5 al of phenol red free DMEM/F12+1% FBS. Cells were plated in 384 well, solid white low volume plates (Greiner 784075) by Multidrop. Cells were assayed by adding 100 al of 2×EC20 FSH/IBMX in DMEM/F12+0.1% BSA) by Multidrop to 2 al of test compound stamped in 384 well plates (compounds are diluted 1:50). The final FSH concentration was 0.265 pM, and the final IBMX concentration was 200 μM. The compound plate map was as follows: Column 1: 2 μl of DMSO; Column 2: 2 μl of DMSO; Columns 3-12 and 13-24: 2 μl of test compound, diluted 1:4 in 100% DMSO, or 2 μl of FSH, diluted 1:4 in DMEM/F12+0.1% BSA. The starting concentration for FSH was 50 nM (final concentration was 0.5 nM). Furthermore, Column 23 contained 2 μl of EC100 FSH reference (100×) (diluted in DMEM/F12+0.1% BSA) at a final concentration of 0.5 nM, and Column 24 contained 2 μl of 1 mM AS707664/2 reference compound 2. 5 μl of compound+EC20 FSH mixture were transferred to cell plates (1:2 dilution into 5 μl of cell media) The plates were incubated at 37° C. for 1 h. […] The plates were read on Envision using the cAMP HTRF—low volume 384 well protocol. The readout was the calculated fluorescence ratio (665 nm/620 nm). […]

pEC50: −log10 of the molar value. The match of structure and compound is tentative.

Take `COc1cc2c(cc1-c1cnn(CC(N)=O)c1C)-c1c(c(C(=O)N(C)C(C)(C)C)nn1-c1cc(Cl)cc(Cl)c1)CO2`: the pEC50 is 7.00 to 8.00.
